Assay results reported in the supplement of paper PMC12067093, “Discovery and optimisation of a covalent ligand for TRIM25 and its application to targeted protein ubiquitination” (Chemical Science, 2025).
Some of the results follow.

By UniProt entry, the sequences of proteins in these tests, tags left out. Where a name states a change or a piece, a line headed by the entry shows the natural chain unless it says otherwise.
UniProt O00754: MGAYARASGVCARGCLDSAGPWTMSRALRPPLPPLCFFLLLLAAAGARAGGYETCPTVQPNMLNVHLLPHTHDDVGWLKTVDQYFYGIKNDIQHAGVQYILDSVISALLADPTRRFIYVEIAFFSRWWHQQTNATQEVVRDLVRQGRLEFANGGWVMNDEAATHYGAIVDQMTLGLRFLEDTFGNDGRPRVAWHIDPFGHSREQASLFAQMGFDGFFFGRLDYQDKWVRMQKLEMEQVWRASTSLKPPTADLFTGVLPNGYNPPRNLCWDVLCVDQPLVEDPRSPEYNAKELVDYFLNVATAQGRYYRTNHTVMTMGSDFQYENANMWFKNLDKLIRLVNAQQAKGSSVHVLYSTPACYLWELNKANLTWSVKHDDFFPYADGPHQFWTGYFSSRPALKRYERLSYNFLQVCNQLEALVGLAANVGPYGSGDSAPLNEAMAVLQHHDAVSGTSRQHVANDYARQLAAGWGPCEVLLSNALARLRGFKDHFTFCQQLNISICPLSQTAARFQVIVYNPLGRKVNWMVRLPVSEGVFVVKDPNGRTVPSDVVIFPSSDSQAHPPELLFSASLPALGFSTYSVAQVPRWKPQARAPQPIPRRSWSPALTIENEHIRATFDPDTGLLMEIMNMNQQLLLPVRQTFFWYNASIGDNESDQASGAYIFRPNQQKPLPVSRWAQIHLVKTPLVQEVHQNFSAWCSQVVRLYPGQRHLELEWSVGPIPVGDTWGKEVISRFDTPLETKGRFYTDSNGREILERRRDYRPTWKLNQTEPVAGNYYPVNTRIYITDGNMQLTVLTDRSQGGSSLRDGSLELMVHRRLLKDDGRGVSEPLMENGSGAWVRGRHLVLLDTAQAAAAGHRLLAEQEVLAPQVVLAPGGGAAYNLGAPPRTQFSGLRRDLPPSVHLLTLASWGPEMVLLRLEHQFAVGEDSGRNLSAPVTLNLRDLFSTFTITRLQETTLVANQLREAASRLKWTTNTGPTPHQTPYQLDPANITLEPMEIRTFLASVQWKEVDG
UniProt P28482, whole entry, looked up: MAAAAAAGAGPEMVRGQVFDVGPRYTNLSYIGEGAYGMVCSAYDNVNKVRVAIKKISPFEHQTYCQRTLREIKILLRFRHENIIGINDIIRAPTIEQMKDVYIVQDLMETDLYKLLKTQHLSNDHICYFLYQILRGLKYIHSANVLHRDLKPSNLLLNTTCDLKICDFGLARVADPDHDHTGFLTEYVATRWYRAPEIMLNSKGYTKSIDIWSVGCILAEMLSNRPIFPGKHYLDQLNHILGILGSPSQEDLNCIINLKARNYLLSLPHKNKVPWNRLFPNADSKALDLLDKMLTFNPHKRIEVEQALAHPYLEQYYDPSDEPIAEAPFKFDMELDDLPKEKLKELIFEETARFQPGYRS
UniProt Q99698: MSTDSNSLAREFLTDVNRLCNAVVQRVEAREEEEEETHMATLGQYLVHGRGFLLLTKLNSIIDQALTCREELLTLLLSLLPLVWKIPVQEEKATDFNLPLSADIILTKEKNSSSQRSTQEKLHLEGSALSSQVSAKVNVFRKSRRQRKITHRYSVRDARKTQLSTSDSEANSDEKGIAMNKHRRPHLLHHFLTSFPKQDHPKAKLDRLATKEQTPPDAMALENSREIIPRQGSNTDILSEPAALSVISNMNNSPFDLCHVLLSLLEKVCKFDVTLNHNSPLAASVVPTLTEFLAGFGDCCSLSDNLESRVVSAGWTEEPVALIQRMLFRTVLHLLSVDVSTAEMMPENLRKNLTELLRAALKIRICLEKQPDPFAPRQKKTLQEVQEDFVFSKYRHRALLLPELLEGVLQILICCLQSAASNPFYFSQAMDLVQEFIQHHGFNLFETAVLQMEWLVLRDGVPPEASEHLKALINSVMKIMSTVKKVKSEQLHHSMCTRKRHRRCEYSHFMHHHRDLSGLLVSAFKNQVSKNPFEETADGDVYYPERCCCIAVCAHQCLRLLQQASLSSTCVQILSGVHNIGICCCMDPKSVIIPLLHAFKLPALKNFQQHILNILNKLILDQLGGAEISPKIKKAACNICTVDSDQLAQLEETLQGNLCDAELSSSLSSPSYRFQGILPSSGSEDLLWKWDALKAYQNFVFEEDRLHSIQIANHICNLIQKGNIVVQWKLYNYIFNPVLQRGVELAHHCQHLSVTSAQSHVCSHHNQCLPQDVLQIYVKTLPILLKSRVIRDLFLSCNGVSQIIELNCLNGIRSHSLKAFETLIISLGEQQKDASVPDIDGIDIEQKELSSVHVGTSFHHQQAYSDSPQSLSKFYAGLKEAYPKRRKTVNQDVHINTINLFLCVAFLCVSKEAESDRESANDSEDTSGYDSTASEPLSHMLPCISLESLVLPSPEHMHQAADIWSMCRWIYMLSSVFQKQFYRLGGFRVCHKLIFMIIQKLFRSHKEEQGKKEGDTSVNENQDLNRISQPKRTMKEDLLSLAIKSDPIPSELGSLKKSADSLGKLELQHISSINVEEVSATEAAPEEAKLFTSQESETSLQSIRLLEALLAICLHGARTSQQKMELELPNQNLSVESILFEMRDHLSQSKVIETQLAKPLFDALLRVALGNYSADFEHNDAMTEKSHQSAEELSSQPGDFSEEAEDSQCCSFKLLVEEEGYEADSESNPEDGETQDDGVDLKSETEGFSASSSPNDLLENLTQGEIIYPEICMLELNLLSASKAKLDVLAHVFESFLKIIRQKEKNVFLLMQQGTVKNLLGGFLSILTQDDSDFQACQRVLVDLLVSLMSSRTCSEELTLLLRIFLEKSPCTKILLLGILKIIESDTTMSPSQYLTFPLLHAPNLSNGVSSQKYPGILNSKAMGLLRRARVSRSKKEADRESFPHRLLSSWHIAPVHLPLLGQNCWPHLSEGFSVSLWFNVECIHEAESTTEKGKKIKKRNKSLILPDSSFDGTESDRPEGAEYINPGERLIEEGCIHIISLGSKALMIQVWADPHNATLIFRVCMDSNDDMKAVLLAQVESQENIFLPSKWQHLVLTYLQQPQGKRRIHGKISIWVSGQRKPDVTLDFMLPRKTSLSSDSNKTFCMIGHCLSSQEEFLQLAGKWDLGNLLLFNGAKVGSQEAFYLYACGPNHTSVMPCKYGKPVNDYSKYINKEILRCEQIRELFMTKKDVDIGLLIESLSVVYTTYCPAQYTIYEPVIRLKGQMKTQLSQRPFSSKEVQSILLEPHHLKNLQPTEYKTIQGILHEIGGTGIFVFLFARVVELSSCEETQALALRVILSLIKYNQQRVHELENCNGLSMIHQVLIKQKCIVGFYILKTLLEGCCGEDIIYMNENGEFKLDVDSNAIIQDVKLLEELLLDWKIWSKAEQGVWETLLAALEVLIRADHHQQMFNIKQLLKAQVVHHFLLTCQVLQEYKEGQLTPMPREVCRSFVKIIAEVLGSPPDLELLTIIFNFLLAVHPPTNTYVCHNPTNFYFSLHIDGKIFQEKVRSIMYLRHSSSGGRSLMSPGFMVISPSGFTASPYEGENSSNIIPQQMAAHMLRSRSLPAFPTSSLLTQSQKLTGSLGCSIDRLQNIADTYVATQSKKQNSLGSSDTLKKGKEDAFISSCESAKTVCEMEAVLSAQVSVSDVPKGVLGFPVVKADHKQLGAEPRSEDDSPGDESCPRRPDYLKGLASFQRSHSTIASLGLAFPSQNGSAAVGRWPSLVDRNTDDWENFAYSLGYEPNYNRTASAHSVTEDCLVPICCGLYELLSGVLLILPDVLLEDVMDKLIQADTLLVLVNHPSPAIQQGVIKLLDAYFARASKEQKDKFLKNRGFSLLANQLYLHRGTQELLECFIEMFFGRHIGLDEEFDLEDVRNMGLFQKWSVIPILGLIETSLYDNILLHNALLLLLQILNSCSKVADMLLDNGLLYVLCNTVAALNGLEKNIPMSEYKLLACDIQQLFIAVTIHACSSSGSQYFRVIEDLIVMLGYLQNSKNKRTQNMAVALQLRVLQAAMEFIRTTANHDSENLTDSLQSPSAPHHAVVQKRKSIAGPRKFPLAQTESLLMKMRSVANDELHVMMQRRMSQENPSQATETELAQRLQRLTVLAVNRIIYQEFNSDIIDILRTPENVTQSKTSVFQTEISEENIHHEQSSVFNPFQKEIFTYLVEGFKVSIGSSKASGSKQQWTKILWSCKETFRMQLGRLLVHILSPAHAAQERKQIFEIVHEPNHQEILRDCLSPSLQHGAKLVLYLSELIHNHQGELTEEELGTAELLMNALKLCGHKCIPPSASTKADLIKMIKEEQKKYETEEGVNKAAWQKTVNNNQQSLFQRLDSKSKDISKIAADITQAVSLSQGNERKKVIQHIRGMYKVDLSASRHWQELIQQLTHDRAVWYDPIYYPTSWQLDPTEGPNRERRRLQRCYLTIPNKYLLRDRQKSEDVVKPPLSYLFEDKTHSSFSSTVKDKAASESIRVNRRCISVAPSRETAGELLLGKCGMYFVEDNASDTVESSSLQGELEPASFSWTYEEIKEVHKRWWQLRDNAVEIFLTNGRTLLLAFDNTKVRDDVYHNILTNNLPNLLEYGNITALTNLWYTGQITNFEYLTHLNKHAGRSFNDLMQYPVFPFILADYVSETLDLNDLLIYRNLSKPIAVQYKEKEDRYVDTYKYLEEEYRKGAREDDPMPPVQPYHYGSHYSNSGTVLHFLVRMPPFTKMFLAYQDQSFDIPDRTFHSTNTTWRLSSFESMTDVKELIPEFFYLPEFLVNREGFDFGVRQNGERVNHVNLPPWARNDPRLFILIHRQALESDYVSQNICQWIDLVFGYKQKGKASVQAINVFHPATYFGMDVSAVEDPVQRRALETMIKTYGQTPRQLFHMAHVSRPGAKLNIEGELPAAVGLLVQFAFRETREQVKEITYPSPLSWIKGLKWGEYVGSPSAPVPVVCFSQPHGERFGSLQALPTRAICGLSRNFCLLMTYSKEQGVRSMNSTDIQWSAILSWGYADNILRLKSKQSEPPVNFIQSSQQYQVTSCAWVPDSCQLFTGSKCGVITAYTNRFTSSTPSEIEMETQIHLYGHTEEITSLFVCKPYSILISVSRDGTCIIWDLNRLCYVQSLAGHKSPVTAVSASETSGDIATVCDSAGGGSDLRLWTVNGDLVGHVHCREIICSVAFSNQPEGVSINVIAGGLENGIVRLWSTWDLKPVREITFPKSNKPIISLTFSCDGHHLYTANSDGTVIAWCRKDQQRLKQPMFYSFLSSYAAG
UniProt P43243: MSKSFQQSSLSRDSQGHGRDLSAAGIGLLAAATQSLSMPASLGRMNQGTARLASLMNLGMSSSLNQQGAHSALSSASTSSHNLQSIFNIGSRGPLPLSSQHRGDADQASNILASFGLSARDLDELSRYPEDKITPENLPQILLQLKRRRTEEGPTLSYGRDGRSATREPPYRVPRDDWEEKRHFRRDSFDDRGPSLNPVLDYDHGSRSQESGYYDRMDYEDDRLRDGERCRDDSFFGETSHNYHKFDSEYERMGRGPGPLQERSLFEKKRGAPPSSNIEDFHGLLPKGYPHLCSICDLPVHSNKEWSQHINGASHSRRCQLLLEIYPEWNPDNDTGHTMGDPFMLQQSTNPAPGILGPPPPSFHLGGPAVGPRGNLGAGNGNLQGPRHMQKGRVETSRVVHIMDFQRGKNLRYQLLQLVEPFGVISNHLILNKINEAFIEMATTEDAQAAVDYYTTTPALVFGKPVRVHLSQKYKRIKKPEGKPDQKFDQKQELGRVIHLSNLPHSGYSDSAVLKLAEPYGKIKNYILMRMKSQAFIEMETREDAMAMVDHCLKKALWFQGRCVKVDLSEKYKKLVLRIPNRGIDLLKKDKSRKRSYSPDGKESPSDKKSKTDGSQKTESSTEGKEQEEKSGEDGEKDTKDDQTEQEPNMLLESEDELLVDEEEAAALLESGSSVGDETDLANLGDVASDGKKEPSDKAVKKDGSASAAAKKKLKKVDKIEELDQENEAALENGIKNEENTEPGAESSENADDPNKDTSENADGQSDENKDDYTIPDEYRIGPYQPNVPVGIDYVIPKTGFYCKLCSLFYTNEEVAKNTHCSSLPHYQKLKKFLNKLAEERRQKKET
UniProt Q7L5Y9: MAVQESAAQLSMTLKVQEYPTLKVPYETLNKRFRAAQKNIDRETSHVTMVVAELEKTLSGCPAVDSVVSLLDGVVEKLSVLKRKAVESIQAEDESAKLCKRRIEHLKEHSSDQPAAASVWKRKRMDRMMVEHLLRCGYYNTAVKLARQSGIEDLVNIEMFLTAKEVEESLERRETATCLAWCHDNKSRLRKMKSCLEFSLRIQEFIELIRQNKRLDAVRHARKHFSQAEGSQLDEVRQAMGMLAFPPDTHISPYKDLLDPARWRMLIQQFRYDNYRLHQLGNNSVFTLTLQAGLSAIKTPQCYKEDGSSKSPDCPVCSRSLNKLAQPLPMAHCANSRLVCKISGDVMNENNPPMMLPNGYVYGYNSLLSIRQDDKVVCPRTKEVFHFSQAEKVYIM
UniProt P55145: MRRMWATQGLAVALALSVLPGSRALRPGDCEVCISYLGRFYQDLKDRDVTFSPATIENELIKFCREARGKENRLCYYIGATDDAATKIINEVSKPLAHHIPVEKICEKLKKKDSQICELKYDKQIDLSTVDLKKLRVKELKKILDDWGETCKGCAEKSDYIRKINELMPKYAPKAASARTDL

The targets below were run with Cc1cc(ccc1-c1ccccc1)C(=O)N1CCCN(CC1)C(=O)CCl [compound 10] (assay: probe-labelled cysteine peptide fold change vs DMSO (competition) (log2 fold change); higher = less target engagement (more negative = stronger competition)). Settings: 10 µM; THP-1; incubation time: 4 h.
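Note: competitive profiling in live THP-1 cells: cysteine peptides tagged with an iodoacetamide desthiobiotin (IA-DTB) probe, intensity after compound treatment relative to DMSO-treated cells.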

Going from LYAR_Q9NX58_25_HVSVCR (UniProt Q9NX58) to “MAPK13_O15264_162_DLKPGNLAVNEDCELK (UniProt O15264)”, the “probe-labelled cysteine peptide fold change” value falls from 0.265 to -0.0959.

Going from “MAN2B1_O00754_472_QLAAGWGPCEVLLSNALAR (UniProt O00754)” to “MCCC2_Q9HCC0_267_AATGEEVSAEDLGGADLHCR (UniProt Q9HCC0)”, the “probe-labelled cysteine peptide fold change” value falls from 0.113 to -0.421.

Going from “MAK16_Q9BXY0_39_NEYSLTGLCNR (UniProt Q9BXY0)” to “MAPK9_P45984_222_GCVIFQGTDHIDQWNK (UniProt P45984)”, the “probe-labelled cysteine peptide fold change” value falls from 0.173 to -0.0703.

Going from “MAPK1_P28482_127_TQHLSNDHICYFLYQILR (UniProt P28482)” to “MAN1A1_P33908_579_WAWEAVEALENHCR (UniProt P33908)”, the “probe-labelled cysteine peptide fold change” value falls from 0.145 to -0.018.

First: LYPLA1_O75608_144_LAGVTALSCWLPLR (UniProt O75608)
Second: LYST_Q99698_2223_SEDDSPGDESCPR (UniProt Q99698)
The “probe-labelled cysteine peptide fold change” value of the first is higher: 0.21 for the first, -0.367 for the second.

Going from “LYPLA1_O75608_53_YICPHAPVRPVTLNMNVAMPSWFDIIGLSPDSQEDESGIK (UniProt O75608)” to “MARS_P56192_333_ALEEGLTPQEICDK (UniProt P56192)”, the “probe-labelled cysteine peptide fold change” value rises from -0.0244 to 0.0983.

Compared with “MATR3_P43243_296_GYPHLCSICDLPVHSNK (UniProt P43243)”, “MAPK1_P28482_40_YTNLSYIGEGAYGMVCSAYDNVNK (UniProt P28482)” is lower in “probe-labelled cysteine peptide fold change” value: 0.102 for the first, 0.0939 for the second.

First: MAPK14_Q16539_39_YQNLSPVGSGAYGSVCAAFDTK (UniProt Q16539)
Second: MATR3_P43243_552_EDAMAMVDHCLK (UniProt P43243)
The “probe-labelled cysteine peptide fold change” value of the first is lower: 0.03 for the first, 0.0807 for the second.

Going from “MAEA_Q7L5Y9_314+317_SPDCPVCSR (UniProt Q7L5Y9)” to “MAPRE2_Q15555_279_EIELLCQEHGQENDDLVQR (UniProt Q15555)”, the “probe-labelled cysteine peptide fold change” value rises from -0.155 to -0.115.

Compared with “MAEA_Q7L5Y9_136_CGYYNTAVK (UniProt Q7L5Y9)”, “MANBA_O00462_176_GECHVNFVR (UniProt O00462)” is lower in “probe-labelled cysteine peptide fold change” value: 0.182 for the first, -0.13 for the second.

Going from “MACF1_Q9UPN3_7133_QVAQCK (UniProt Q9UPN3)” to “MAN2C1_Q9NTJ4_29_FVSPLYFTDCNLR (UniProt Q9NTJ4)”, the “probe-labelled cysteine peptide fold change” value rises from 0.0482 to 0.0757.

Going from “LYST_Q99698_3677_SPVTAVSASETSGDIATVCDSAGGGSDLR (UniProt Q99698)” to “LYST_Q99698_2127_LTGSLGCSIDR (UniProt Q99698)”, the “probe-labelled cysteine peptide fold change” value falls from 0.206 to -0.208.

Going from “MAN2B1_O00754_273_NLCWDVLCVDQPLVEDPR (UniProt O00754)” to “LYST_Q99698_3586_CGVITAYTNR (UniProt Q99698)”, the “probe-labelled cysteine peptide fold change” value rises from -0.347 to 0.0559.

Compared with “MANF_P55145_151_ILDDWGETCK (UniProt P55145)”, “MAP3K20_Q9NYL2_231_LTIPSSCPR (UniProt Q9NYL2)” is higher in “probe-labelled cysteine peptide fold change” value: -0.142 for the first, -0.136 for the second.

Going from “MAPKBP1_O60336_1443_LYHSVAGCK (UniProt O60336)” to “MACF1_Q9UPN3_5188_LDIEASEAECR (UniProt Q9UPN3)”, the “probe-labelled cysteine peptide fold change” value falls from 0.146 to 0.0743.

First: MAT2B_Q9NZL9_263_YEMACAIADAFNLPSSHLRPITDSPVLGAQRPR (UniProt Q9NZL9)
Second: LYST_Q99698_2965_CYLTIPNK (UniProt Q99698)
The “probe-labelled cysteine peptide fold change” value of the first is lower: -0.198 for the first, -0.0985 for the second.

First: LYST_Q99698_3701_LWTVNGDLVGHVHCR (UniProt Q99698)
Second: MAPK1_P28482_254_HYLDQLNHILGILGSPSQEDLNCIINLK (UniProt P28482)
The “probe-labelled cysteine peptide fold change” value of the first is higher: 0.112 for the first, -0.204 for the second.

Compared with MBD4_O95243_268_ESVCNK (UniProt O95243), “MBOAT7_Q96N66_304_NIDCYSTDFCVR (UniProt Q96N66)” is higher in “probe-labelled cysteine peptide fold change” value: -0.393 for the first, 0.139 for the second.
